About 7,700 (2.3%) of roughly 330,000 compounds were called active. This list was built around the results that the source calls inconclusive (neither active nor inactive); the mix of calls is not that of the screen. The call rests on the fitted dose curve; in most records, active means well fitted inhibition curve with a large enough effect; inconclusive means small, poorly fitted or top-dose-only effect, or effect the other way; inactive means flat fitted curve, though single readings scatter. Potencies beside an inconclusive call are fits to weak or partial responses and may not hold up.
Experiment: qHTS screen for small molecules that inhibit ELG1-dependent DNA repair in human embryonic kidney (HEK293T) cells expressing luciferase-tagged ELG1; further: nearly all actives have a fitted effect of over 55% in size
Settings: HEK293T ELG1-luciferase reporter, luminescence, 16 h, DNA damage induced by 5-fluorouridine; activity change, negative = inhibition: at 46.1 µM (top of the series)
Outline: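 Step one: seed 2,000 cells per well. Step two: pin-transfer compound or DMSO alongside 5-fluorouridine. Step three: incubate 16 hr, 37 °C, 5% CO2. Step four: add ONE-Glo, wait 30 min, read luminescence.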
On the % scale 0 is the no-effect control and ±100 the full control effect; potency means the concentration at half of the fitted maximal effect.

Structure (SMILES) | Potency | activity change, negative = inhibition
O=C(O)c1cc(-c2ccc3c(c2)OCO3)nc2ccc(Cl)cc12 | inconclusive: 18.3 µM [activator, partial curve] | 
COc1ccc(C(=O)Nc2cc(C)nn2-c2cccc(F)c2)cc1OC |  | inactive: 14.7%
CSc1ccccc1OCc1cc(C(=O)N(C)Cc2ccncn2)no1 | inconclusive: 18.3 µM [activator, partial curve] | 
Cc1cccc(OCc2nnc(SCC(=O)N(C(C)C)C(C)C)n2Cc2ccco2)c1C | inconclusive: 20.6 µM [inhibitor, partial curve, poor fit] | 
Cc1ccc(CNC(=O)CSc2ncccn2)cc1 | inconclusive: 14.6 µM [activator, partial curve, poor fit] | 
O=C(NN1C(=O)/C(=C/c2cccnc2)SC1=S)C(c1ccccc1)c1ccccc1 |  | inactive: -8.63%
COc1ccc(C2CC(=O)c3cnc(NC(=O)c4cccc(OC)c4)nc3C2)cc1 (configuration not stated) |  | inactive: -22.5%
CCOC(=O)C1(CCOc2ccccc2)CCN(Cc2cccc(OCCO)c2)CC1 | inconclusive: 11.2 µM [inhibitor, partial curve, poor fit] | 
CCN(CC)S(=O)(=O)c1cccc(NC(=O)CN(C)Cc2cccc(OC)c2)c1 | inconclusive: 16.4 µM [inhibitor, single point] | 
CCOC(=O)c1ccc(N2C=C(C(=O)OC)C(c3cccc(O)c3)C(C(=O)OC)=C2)cc1 | inconclusive: 29.1 µM [inhibitor, single point] | 
Cc1nnc(OCc2nc3ccccc3n2C)c2ccccc12 | inconclusive: 23.1 µM [activator, single point] | 
CNC(=S)N1N=C(c2ccc(Br)cc2)CC1c1ccc(OC)cc1 (configuration not stated) | inconclusive: 18.4 µM [inhibitor, partial curve, poor fit] | 
COc1ccc(Nc2ncnc3sc(C)cc23)cc1 | inconclusive: 6.51 µM [activator, partial curve] | 
CCCOc1ccc(-c2c(C(=O)N/N=C(\C)c3cccs3)nnn2-c2nonc2N)cc1 |  | inactive: 22.5%
Cc1cnn(-c2cc(N/N=C/c3cccc(F)c3)ncn2)c1 |  | inactive: 9.86%
CCn1c(-c2ccc(F)cc2)cnc1SCC(=O)N1CCc2ccccc21 | inconclusive: 3.26 µM [activator, full curve] | 
CC(=O)c1cccc(NC(=O)c2ccccc2N(Cc2ccccc2)S(C)(=O)=O)c1 |  | inactive: -27.9%
Cc1ccccc1NC(=O)c1ccco1 | inconclusive: 32.6 µM [activator, partial curve, poor fit] | 
COc1ccccc1C(=O)Nc1cc2ccccc2oc1=O | inconclusive: 1.84 µM [activator, full curve] | 
COc1cc(/C=N/Nc2nc(=O)[nH]nc2C)ccc1O |  | inactive: -20.1%
O=C(NCc1cccc(Cl)c1)c1ccc2ccccc2n1 |  | inactive: 3.52%
COc1cccc(CN(C(=O)/C=C/c2ccc(Cl)cc2)C2CCS(=O)(=O)C2)c1 (configuration not stated) | inconclusive: 25.9 µM [inhibitor, single point] | 
CN(c1ccc(C(=O)NCCSC(C)(C)C)cc1)S(C)(=O)=O | inconclusive: 18.4 µM [activator, partial curve, poor fit] | 
COc1ccc(NC(=O)c2ccccc2)c([N+](=O)[O-])c1 | inconclusive: 18.3 µM [activator, partial curve] | 

Structures from the list above with a furan ring, fused or not:
Structure (SMILES) | Potency | activity change, negative = inhibition
Cc1cccc(OCc2nnc(SCC(=O)N(C(C)C)C(C)C)n2Cc2ccco2)c1C | inconclusive: 20.6 µM [inhibitor, partial curve, poor fit] | 
Cc1ccccc1NC(=O)c1ccco1 | inconclusive: 32.6 µM [activator, partial curve, poor fit] | 

(continued)

Structure (SMILES) | Potency | activity change, negative = inhibition
CC(=O)N1CCc2cc(S(=O)(=O)CCC(=O)Nc3cc(C)cc(C)c3)ccc21 |  | inactive: 9.82%
COc1ccc(NC(=O)Cn2nnc(-c3ccccc3NC(=O)c3ccco3)n2)cc1 | inconclusive: 5.17 µM [inhibitor, full curve] | 
CC(C)(C)c1ccc(C(=O)N2CCNCC2)cc1 |  | inactive: 10.5%
COc1ccc(-c2noc(CCC(=O)N(C)c3cccc(C)c3)n2)cc1 |  | inactive: -2.51%
OC1CCCN(c2c3c(nc4cc(-c5cccc(Cl)c5)nn24)CCC3)C1 (configuration not stated) | active: 20.6 µM | 
O=C(CCC(=O)c1cccs1)c1cccs1 | inconclusive: 7.31 µM [activator, partial curve] | 
C[n+]1cccc2ccc3c(c21)OC(N)=C(C#N)C3c1ccccc1 (configuration not stated) | inconclusive: 0.58 µM [inhibitor, single point] | 
Cc1cc[n+](CC(=O)c2ccc(NC(=O)c3ccccc3)cc2)c2ccccc12 | inconclusive: 16.4 µM [inhibitor, single point] | 
CCc1nc(SCc2ccccn2)[nH]c(=O)c1C | inconclusive: 23.1 µM [activator, partial curve, poor fit] | 
O=S(=O)(c1ccc2ccccc2c1)N1CCNCC1 | inconclusive: 5.62 µM [inhibitor, full curve, poor fit] | 
O=C(Cc1ccccc1[N+](=O)[O-])N1CCN(c2ccc(F)cc2)CC1 |  | inactive: -0.397%
Cc1ccc(S(=O)(=O)N2CCCCC2)cc1C(=O)OC(C)C(=O)NCC1CCCCC1 (configuration not stated) |  | inactive: 2.41%
O=C(Nc1nnc(-c2ccco2)o1)c1cccc(Cl)c1 | inconclusive: 20.6 µM [inhibitor, partial curve, poor fit] | 
O=C(CCC(=O)c1ccc(F)cc1)Nc1cccc(S(=O)(=O)Nc2cccc(Cl)c2)c1 |  | inactive: -27.2%
S=C(CN1CCCC1=S)NCCc1ccccc1 | inconclusive: 20.6 µM [inhibitor, single point] | 
COc1ccc2cc3cc(C(=O)N4CCN(c5ccccc5)CC4)oc3nc2c1 |  | inactive: 19.5%
Cn1cc(/C=C2\SC(=O)NC2=S)c2ccccc21 |  | inactive: -6.51%
CC(C)CCOCC(O)CCC(=O)NNC(=S)Nc1ccccc1 (configuration not stated) | inconclusive: 16.4 µM [activator, partial curve, poor fit] | 
N/C(=N\OC(=O)COc1ccc([N+](=O)[O-])cc1)c1ccncc1 | inconclusive: 16.4 µM [activator, partial curve, poor fit] | 
Oc1cccc2ccc(/C=C/c3cccs3)nc12 | inconclusive: 10.3 µM [activator, partial curve] | 
COC(=O)Cn1cnc2c(oc3ccccc32)c1=O | inconclusive: 20.6 µM [activator, partial curve] | 
CCSc1ncc(/C=N/Nc2ccc(F)cc2)n1C | inconclusive: 18.4 µM [activator, partial curve] | 
COc1ccc2c(-c3ccccc3)cc(=O)[nH]c2c1 |  | inactive: 15%
CCCC(=O)C1=C(O)C(c2cccc(Oc3ccccc3)c2)CCC1=O (configuration not stated) | active: 18.3 µM | 

Structure (SMILES) | Potency | activity change, negative = inhibition
Nc1nc(CSc2ccccc2)nc(N2CCCCC2)n1 | inconclusive: 10.3 µM [activator, partial curve] | 
CCCn1c(C)cc(C(=O)Cn2nnc3ccccc3c2=O)c1C | inconclusive: 3.66 µM [activator, full curve] | 
COc1c(C)cc(C(=O)C2CCCN(C(=O)c3cccc(-n4cccn4)c3)C2)cc1C (configuration not stated) | active: 23.1 µM | 
CCC(NC(=S)NC1CCCCC1)c1ccc(C)cc1 (configuration not stated) |  | inactive: -27.2%
O=C(C1=C[C@@H](C2CCCCC2)C[C@@H](OCc2ccc(CO)cc2)O1)N1CCN(Cc2ccc3c(c2)OCO3)CC1 | inconclusive: 18.3 µM [inhibitor, single point] | 
COc1ccc(S(=O)(=O)N(CCN2CCOCC2)Cc2cc(OC)ccc2OC)cc1 |  | inactive: 4.06%
CCCCC(=O)N1CCN(c2nc3ccc(Cl)cc3s2)CC1 | inconclusive: 6.51 µM [activator, single point] | 
O=C1CCN(CCc2ccccc2)CCN1[C@H](CSc1ccc(Br)cc1)Cc1ccccc1 | inconclusive: 29.1 µM [inhibitor, single point] | 
O=C(c1cc(COc2ccc(F)cc2Cl)on1)N1CCCC(c2ccccc2)C1 (configuration not stated) |  | inactive: -19.8%
O=C(Nc1cccnc1)c1ccc2ccccc2c1O | inconclusive: 18.3 µM [activator, partial curve] | 
CCOC(=O)c1ccc(NC(=O)NCc2ccccn2)cc1 |  | inactive: 11%
Cc1cnn(C(=S)NCC2CCCO2)c1 (configuration not stated) | inconclusive: 18.4 µM [activator, single point] | 
NC(=O)c1c(NC(=O)CN2C(=O)CCC2=O)sc2c1CCCCC2 | inconclusive: 32.6 µM [activator, single point] | 
COc1cccc(S(=O)(=O)N2CCN(Cc3ccc4c(c3)OCO4)CC2)c1 | inconclusive: 25.9 µM [inhibitor, partial curve, poor fit] | 
NS(=O)(=O)c1ccc(NC(=O)COc2ncnc3c2cnn3-c2ccccc2)cc1 | inconclusive: 25.9 µM [inhibitor, partial curve, poor fit] | 
O=C(O)c1ccccc1NS(=O)(=O)c1ccc(NN=Cc2ccccc2F)c([N+](=O)[O-])c1 | inconclusive: 23.1 µM [activator, single point] | 
S=C(NCCc1ccccc1)NC1CCC(NC(=S)NCCc2ccccc2)CC1 (configuration not stated) |  | inactive: -12.1%
Cc1c(-c2ccc(Br)cc2)nc2ccccn12 | inconclusive: 5.17 µM [activator, partial curve] | 
COc1ccccc1OCc1cc(C(=O)N(C)CCC2CCCCO2)no1 (configuration not stated) | inconclusive: 20.6 µM [activator, partial curve] | 
CC1CC(C)(C)NC(=S)N1CCC(=O)N1CCc2ccccc2C1 (configuration not stated) |  | inactive: -7.41%
CCCCCCN(C(=O)CCCCCN1C(=O)NC(c2ccc(-c3ccccc3)cc2)C(C(=O)OCc2ccccc2)=C1C)C(C(=O)NCCCC)c1ccc(O)c(C(=O)OC)c1 (configuration not stated) |  | inactive: 12.1%
COc1ccccc1NC(=S)NCCc1c[nH]c2ccccc12 |  | inactive: 5.84%
COc1ccc(-c2n[nH]c(C(F)(F)F)c2-c2cc3ccccc3o2)c(O)c1 |  | inactive: -14.9%
COc1ccc(C(=O)NNC(=S)NC(=O)/C=C/c2cccs2)cc1 | inconclusive: 10.3 µM [activator, partial curve] | 

Of the compounds above, these have an NH in an aromatic ring:
Structure (SMILES) | Potency | activity change, negative = inhibition
COc1cc(/C=N/Nc2nc(=O)[nH]nc2C)ccc1O |  | inactive: -20.1%
CCc1nc(SCc2ccccn2)[nH]c(=O)c1C | inconclusive: 23.1 µM [activator, partial curve, poor fit] | 
COc1ccc2c(-c3ccccc3)cc(=O)[nH]c2c1 |  | inactive: 15%
COc1ccccc1NC(=S)NCCc1c[nH]c2ccccc12 |  | inactive: 5.84%
COc1ccc(-c2n[nH]c(C(F)(F)F)c2-c2cc3ccccc3o2)c(O)c1 |  | inactive: -14.9%

Source: PubChem BioAssay AID504467 (National Center for Advancing Translational Sciences (NCATS), 2011)
